PubChem BioAssay AID1259405, NCATS – 2018

Assay: 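Mouse-designed siRNAs used to find CHO productivity engineering targets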 (primary screen)
Cells: Chinese hamster CHO-K1 ovary cells with stable secreted eGFP expression
Knock-down reagent: single siRNA against mouse genes, 0.8 pmol siRNA per well (2 µl of 400 nM stock)
Timing: 3 days
Detection: 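Percent of the per-plate non-targeting control median for intracellular GFP per well by laser scanning cytometry and for cell viability by ATP luminescence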
Direction: GFP, % of control: higher = more GFP per well, higher productivity; viability (ATP), % of control: higher = more viable cells (more ATP)
Call rule: 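a knock-down is called active if GFP reaches 120% or more of non-targeting control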
The whole screen tested about 50,000 reagents; shown is a part drawn at random. Over the whole deposit, about 4,000 (8%) are marked active. 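Mouse siRNA library applied to hamster cells; one well for each siRNA.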 Reagents against one gene are numbered here.

no.	gene	reagent	GFP, % of control	viability (ATP), % of control	Call
1	Rmp64 (ribonuclease MRP subunit p64)	1	48.4	44.6	inactive
2	Rmp64 (ribonuclease MRP subunit p64)	2	88.7	89.6	inactive
3	Rmp64 (ribonuclease MRP subunit p64)	3	105	115	inactive
4	1700129C05Rik (RIKEN cDNA 1700129C05 gene)	1	81.7	87	inactive
5	1700129C05Rik (RIKEN cDNA 1700129C05 gene)	2	80.7	90.1	inactive
6	1700129C05Rik (RIKEN cDNA 1700129C05 gene)	3	82.2	87.4	inactive
7	Eloa (elongin A)	1	104	125	inactive
8	Eloa (elongin A)	2	83.8	112	inactive
9	Eloa (elongin A)	3	136	73.1	active
10	Nudt16l2 (nudix hydrolase 16 like 2)	1	80.3	56.1	inactive
11	Nudt16l2 (nudix hydrolase 16 like 2)	2	71.8	86.8	inactive
12	Nudt16l2 (nudix hydrolase 16 like 2)	3	81.3	71.5	inactive
13	Tspan7 (tetraspanin 7)	1	56.5	42.7	inactive
14	Tspan7 (tetraspanin 7)	2	54.5	57.1	inactive
15	Tspan7 (tetraspanin 7)	3	75.3	111	inactive
16	Crabp1 (cellular retinoic acid binding protein I)	1	213	127	active
17	Crabp1 (cellular retinoic acid binding protein I)	2	97.5	68.4	inactive
18	Crabp1 (cellular retinoic acid binding protein I)	3	83.4	77.1	inactive
19	Crabp1 (cellular retinoic acid binding protein I)	4	132	58.8	active
20	Crabp1 (cellular retinoic acid binding protein I)	5	106	81.6	inactive
21	Crabp1 (cellular retinoic acid binding protein I)	6	139	95.4	active
22	Tmem242 (transmembrane protein 242)	1	82.7	84.3	inactive
23	Tmem242 (transmembrane protein 242)	2	70.7	69.7	inactive
24	Tmem242 (transmembrane protein 242)	3	59.3	72.2	inactive
25	Tmc1 (transmembrane channel-like gene family 1)	1	97.1	67.4	inactive
26	Tmc1 (transmembrane channel-like gene family 1)	2	106	121	inactive
27	Tmc1 (transmembrane channel-like gene family 1)	3	63.3	76.5	inactive
28	Ift38 (intraflagellar transport 38)	1	79.3	74.9	inactive
29	Ift38 (intraflagellar transport 38)	2	39.5	66.4	inactive
30	Ift38 (intraflagellar transport 38)	3	92.4	75.6	inactive
31	Serpinb9g (serine (or cysteine) peptidase inhibitor, clade B, member 9g)	1	78.4	88	inactive
32	Serpinb9g (serine (or cysteine) peptidase inhibitor, clade B, member 9g)	2	36.5	52.7	inactive
33	Serpinb9g (serine (or cysteine) peptidase inhibitor, clade B, member 9g)	3	104	111	inactive
34	Tmem131 (transmembrane protein 131)	1	69.5	85.3	inactive
35	Tmem131 (transmembrane protein 131)	2	59	98.6	inactive
36	Tmem131 (transmembrane protein 131)	3	61	64.6	inactive
37	Magoh (mago homolog, exon junction complex core component)	1	41.8	80.4	inactive
38	Magoh (mago homolog, exon junction complex core component)	2	68.7	83.1	inactive
39	Magoh (mago homolog, exon junction complex core component)	3	89.7	63.7	inactive
40	Creb3l2 (cAMP responsive element binding protein 3-like 2)	1	20.4	16.8	inactive
41	Creb3l2 (cAMP responsive element binding protein 3-like 2)	2	54.1	45.7	inactive
42	Creb3l2 (cAMP responsive element binding protein 3-like 2)	3	99.3	95	inactive
43	Ogfod3	1	64.2	59.3	inactive
44	Ogfod3	2	78.4	95.2	inactive
45	Ogfod3	3	72	98.6	inactive
46	Tm2d3 (TM2 domain containing 3)	1	94.3	80.2	inactive
47	Tm2d3 (TM2 domain containing 3)	2	91.9	61.4	inactive
48	Tm2d3 (TM2 domain containing 3)	3	89.2	64.3	inactive
49	Gm5414 (predicted gene 5414)	1	68.9	49.5	inactive
50	Gm5414 (predicted gene 5414)	2	63	67.9	inactive
51	Gm5414 (predicted gene 5414)	3	122	94.1	active
52	Gng4 (guanine nucleotide binding protein (G protein), gamma 4)	1	119	94.7	inactive
53	Gng4 (guanine nucleotide binding protein (G protein), gamma 4)	2	88.7	56.1	inactive
54	Gng4 (guanine nucleotide binding protein (G protein), gamma 4)	3	121	69.7	active
55	Or4f7 (olfactory receptor family 4 subfamily F member 7)	1	130	93.6	active
56	Or4f7 (olfactory receptor family 4 subfamily F member 7)	2	113	51.4	inactive
57	Or4f7 (olfactory receptor family 4 subfamily F member 7)	3	55.8	65.2	inactive
58	Speer3 (spermatogenesis associated glutamate (E)-rich protein 3)	1	132	70.7	active
59	Speer3 (spermatogenesis associated glutamate (E)-rich protein 3)	2	98.6	102	inactive
60	Speer3 (spermatogenesis associated glutamate (E)-rich protein 3)	3	106	132	inactive
61	Nr1h2 (nuclear receptor subfamily 1, group H, member 2)	1	114	101	inactive
62	Nr1h2 (nuclear receptor subfamily 1, group H, member 2)	2	92.1	60.5	inactive
63	Hoxc13 (homeobox C13)	1	112	113	inactive
64	Hoxc13 (homeobox C13)	2	85	81	inactive
65	Hoxc13 (homeobox C13)	3	42.2	35.1	inactive
66	Anp32e (acidic nuclear phosphoprotein 32 family member E)	1	128	106	active
67	Anp32e (acidic nuclear phosphoprotein 32 family member E)	2	54.2	76.4	inactive
68	Anp32e (acidic nuclear phosphoprotein 32 family member E)	3	99	96.2	inactive
69	1700030J22Rik (RIKEN cDNA 1700030J22 gene)	1	77.8	34.9	inactive
70	1700030J22Rik (RIKEN cDNA 1700030J22 gene)	2	49.8	102	inactive
71	1700030J22Rik (RIKEN cDNA 1700030J22 gene)	3	78.7	94.8	inactive
72	Shisa7 (shisa family member 7)	1	81.3	55.7	inactive
73	Shisa7 (shisa family member 7)	2	93.4	77.9	inactive
74	Shisa7 (shisa family member 7)	3	101	67.8	inactive
75	Samd4b (sterile alpha motif domain containing 4B)	1	66.4	63.9	inactive
76	Samd4b (sterile alpha motif domain containing 4B)	2	69.9	74	inactive
77	Samd4b (sterile alpha motif domain containing 4B)	3	109	115	inactive
78	Stag3 (STAG3 cohesin complex component)	1	118	54.6	inactive
79	Stag3 (STAG3 cohesin complex component)	2	127	78.6	active
80	Stag3 (STAG3 cohesin complex component)	3	46.2	49.1	inactive
81	Gm10413 (predicted gene 10413)	1	80.5	67.6	inactive
82	Gm10413 (predicted gene 10413)	2	74.2	60.4	inactive
83	Gm10413 (predicted gene 10413)	3	96.1	70.2	inactive
84	Sfr1 (SWI5 dependent recombination repair 1)	1	135	102	active
85	Sfr1 (SWI5 dependent recombination repair 1)	2	118	89.3	inactive
86	Sfr1 (SWI5 dependent recombination repair 1)	3	111	153	inactive
87	Lrrc8d (leucine rich repeat containing 8D)	1	64.1	78.7	inactive
88	Lrrc8d (leucine rich repeat containing 8D)	2	71	53.7	inactive
89	Lrrc8d (leucine rich repeat containing 8D)	3	76	67.7	inactive
90	Nudt11 (nudix hydrolase 11)	1	35.5	75.4	inactive
91	Nudt11 (nudix hydrolase 11)	2	80.7	131	inactive
92	Nudt11 (nudix hydrolase 11)	3	57.1	52.3	inactive
93	Tex264 (testis expressed gene 264 ER-phagy receptor)	1	65.1	61.7	inactive
94	Tex264 (testis expressed gene 264 ER-phagy receptor)	2	65.7	78.9	inactive
95	Tex264 (testis expressed gene 264 ER-phagy receptor)	3	138	143	active
96	Vmn1r189 (vomeronasal 1 receptor 189)	1	52.4	52.5	inactive
97	Vmn1r189 (vomeronasal 1 receptor 189)	2	112	61.5	inactive
98	Vmn1r189 (vomeronasal 1 receptor 189)	3	74	83.3	inactive
99	Pxmp2 (peroxisomal membrane protein 2)	1	80	63.2	inactive
100	Pxmp2 (peroxisomal membrane protein 2)	2	79.2	95.1	inactive
101	Pxmp2 (peroxisomal membrane protein 2)	3	39.6	81.2	inactive
102	Ptx3 (pentraxin related gene)	1	68.2	65.6	inactive
103	Ptx3 (pentraxin related gene)	2	52.1	26.1	inactive
104	Ptx3 (pentraxin related gene)	3	54.9	54.5	inactive
105	Olr1 (oxidized low density lipoprotein (lectin-like) receptor 1)	1	133	133	active
106	Olr1 (oxidized low density lipoprotein (lectin-like) receptor 1)	2	97.6	84	inactive
107	Olr1 (oxidized low density lipoprotein (lectin-like) receptor 1)	3	88.8	68.4	inactive
